Results reported in PubChem BioAssay AID1487 (National Center for Advancing Translational Sciences (NCATS), 2009).
Some of the results follow. The main result of the screen is listed elsewhere. These columns were measured beside it and carry no call. The list favours compounds with an active or inconclusive main result. Words in brackets tell the shape of the fitted curve; partial curves, single points and poor fits give uncertain potencies.

Experiment: qHTS Assay for Modulators of Lamin A Splicing
Details: HeLa LMNA splicing GFP/RFP minigene ratio, 48 h
How it was run: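 S3 HeLa cells stably expressing lamin A-EGFP splicing minigene plus DsRed2, 600 cells/well, 48 h compound exposure at 37C. Laser-scanning cytometry; analysed as GFP (500-530 nm)/RFP (575-640 nm) total intensity ratio; 0.5% DMSO vehicle.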

[1] = measured here: GFP splicing reporter channel
[2] = measured here: RFP viability control channel

SMILES: CCOC(=O)c1sc(NC(=O)CCN2CCCCCC2)c(C(=O)OCC)c1C
- AC50 [1]: 0.126 µM [rising, full curve, poor fit]
- AC50 [2]: 0.1 µM [rising, full curve]

SMILES: COc1ccccc1CNc1ncncc1-c1ccccc1OC
- AC50 [1]: 7.08 µM [falling, partial curve]

SMILES: CCOc1ccc(S(=O)(=O)Nc2ccc3c(c2)OCO3)c2cccnc12
- AC50 [1]: 14.1 µM [rising, single point]
- AC50 [2]: 15.8 µM [rising, partial curve, poor fit]

SMILES: CCN(CC)CC(=O)Nc1sc(C)c(C)c1C(=O)c1ccc(C)cc1
- AC50 [1]: 12.6 µM [falling, partial curve]

SMILES: CC#C[C@@]1(O)CC[C@H]2[C@@H]3CCC4=CC(=O)CCC4=C3[C@H](c3ccc(N(C)C)cc3)C[C@]21C
- AC50 [1]: 5.62 µM [falling, partial curve, poor fit]
- AC50 [2]: 4.47 µM [falling, partial curve]

SMILES: COc1cccc(CNC(=O)c2ccc3c(c2)N(Cc2ccc(F)cc2Cl)C(=O)c2ccccc2S3)c1
- AC50 [2]: 1.12 µM [falling, single point]

SMILES: COc1ccccc1N1CCN(Cc2cc(Br)c(O)c3ncccc23)CC1
- AC50 [2]: 2.82 µM [rising, full curve]

SMILES: O=C(NCCN1CCOCC1)c1ccc(Cl)c(S(=O)(=O)N2CCCCCC2)c1
- AC50 [1]: 12.6 µM [rising, partial curve]
- AC50 [2]: 15.8 µM [rising, partial curve]

SMILES: COc1c(O)cc2c(c1O)[C@@H]1O[C@@H](CO)[C@@H](O)[C@@H](O)[C@@H]1OC2=O
- AC50 [1]: 0.00251 µM [falling, full curve, poor fit]
- AC50 [2]: 0.00251 µM [falling, full curve, poor fit]

SMILES: C=CCc1ccccc1OCC(=O)N/N=C/c1ccc(OC(C)=O)cc1OC(C)=O
- AC50 [1]: 7.08 µM [rising, partial curve, poor fit]
- AC50 [2]: 12.6 µM [rising, partial curve]

SMILES: CCOCCCNC(=O)CCCC1=NS(=O)(=O)c2ccccc2N1
- AC50 [1]: 0.794 µM [falling, single point]
- AC50 [2]: 0.0562 µM [falling, full curve, poor fit]

SMILES: CCOC(=O)CSc1nc2ccc(N3CCOCC3)cc2c(=O)n1Cc1ccc2c(c1)OCO2
- AC50 [1]: 17.8 µM [rising, partial curve, poor fit]

SMILES: CCOc1cc(S(=O)(=O)N2CCN(Cc3ccccc3)CC2)ccc1Br
- AC50 [1]: 7.08 µM [rising, full curve]
- AC50 [2]: 14.1 µM [rising, partial curve]

SMILES: C=CCN(CC=C)S(=O)(=O)c1ccc(C(=O)Nc2nnc(CSC)o2)cc1
- AC50 [1]: 0.112 µM [falling, full curve]

SMILES: Cc1ccccc1/C=C/C1=NCCN1
- AC50 [1]: 17.8 µM [falling, partial curve]
- AC50 [2]: 12.6 µM [rising, partial curve]

SMILES: COc1ccc(Cl)cc1NC(=O)CSc1nnc2[nH]c(=O)cc(-c3ccccc3)n12
- AC50 [1]: 20 µM [falling, single point]

SMILES: Cc1ccc2[nH]c(=O)c3cc(C(=O)N(CCCOC(C)C)Cc4ccco4)sc3c2c1
- AC50 [1]: 15.8 µM [rising, single point]
- AC50 [2]: 17.8 µM [rising, single point]

SMILES: COc1ccc(C2=NCCc3cc(OC)c(OC)cc32)cc1
- AC50 [2]: 0.178 µM [rising, full curve, poor fit]

SMILES: C/C(=N\NC(=O)COc1ccc(C(C)(C)C)cc1)c1ccc2c(c1)OCCO2
- AC50 [2]: 31.6 µM [rising, single point]

SMILES: Cc1cccc(C(=O)NC(=O)Nc2c(C)cc(C)nc2C)c1
- AC50 [1]: 0.00316 µM [falling, full curve, poor fit]
- AC50 [2]: 0.00316 µM [falling, full curve, poor fit]

SMILES: COc1ccccc1N1CCN(C(=O)c2cc(-c3cccc(Cl)c3)on2)CC1
- AC50 [1]: 35.5 µM [rising, single point]

SMILES: COC(=O)c1c(-c2cccs2)csc1NC(=O)c1cccnc1
- AC50 [1]: 11.2 µM [rising, partial curve]
- AC50 [2]: 11.2 µM [rising, single point]

SMILES: CN1CCN(S(=O)(=O)c2cccc(C(=O)Nc3sc4c(c3C(N)=O)CCCC4)c2)CC1
- AC50 [1]: 11.2 µM [rising, partial curve]

SMILES: Cc1ccc(/C=C/C(=O)NC2=NCCS2)cc1
- AC50 [1]: 0.02 µM [falling, full curve, poor fit]

SMILES: Cc1cccc2sc(NC(=O)c3ccc(NS(=O)(=O)c4cccs4)cc3)nc12
- AC50 [1]: 0.631 µM [rising, full curve, poor fit]
- AC50 [2]: 14.1 µM [rising, partial curve]

SMILES: COc1cccc(OCCc2c(C)n[nH]c2C)c1
- AC50 [1]: 14.1 µM [rising, partial curve]
- AC50 [2]: 17.8 µM [rising, single point]

SMILES: COc1ccc(N)cc1-n1c(C)ccc1C
- AC50 [2]: 17.8 µM [falling, single point]

SMILES: CS(=O)(=O)Oc1ccc2c(c1)O/C(=C\C=C\c1ccccc1)C2=O
- AC50 [1]: 3.98 µM [rising, full curve, poor fit]
- AC50 [2]: 6.31 µM [rising, single point]

SMILES: CCOC(=O)c1c(C)[nH]c(C(=O)COC(=O)c2cnc(C)cn2)c1C
- AC50 [2]: 12.6 µM [falling, partial curve, poor fit]

SMILES: COc1cccc(N2CCN(C(=O)c3nc(-c4ccc(Cl)cc4)n4c3CCCCC4)CC2)c1
- AC50 [2]: 15.8 µM [rising, single point]

SMILES: Cc1nc(N2CCCC2)ncc1C(=O)NCc1ccccc1Cl
- AC50 [1]: 0.891 µM [rising, full curve, poor fit]

SMILES: CCc1nnc2n1N(C(C)=O)C(c1ccc(C(C)(C)C)cc1)=C(C(C)=O)S2
- AC50 [1]: 31.6 µM [falling, single point]
- AC50 [2]: 35.5 µM [falling, single point]

SMILES: COC(=O)c1ccc(NC(=O)C2CCN(S(=O)(=O)c3ccc4c(c3)CCCN4C(C)=O)CC2)cc1
- AC50 [1]: 12.6 µM [falling, partial curve, poor fit]
- AC50 [2]: 0.891 µM [falling, full curve, poor fit]
